Measurements taken from article PMC7862700.
The entries are a selection whose mix differs from that of the whole data set. For some of these results: At the low end of the ranking the order means little. The list shows a part of the results. For some of these results: The source does not settle which construct or isoform was used.

Amino acid sequences for entries named in this document (tags omitted). A change or cut given only in a name is not applied to a line headed by its entry.
UniProt Q00613: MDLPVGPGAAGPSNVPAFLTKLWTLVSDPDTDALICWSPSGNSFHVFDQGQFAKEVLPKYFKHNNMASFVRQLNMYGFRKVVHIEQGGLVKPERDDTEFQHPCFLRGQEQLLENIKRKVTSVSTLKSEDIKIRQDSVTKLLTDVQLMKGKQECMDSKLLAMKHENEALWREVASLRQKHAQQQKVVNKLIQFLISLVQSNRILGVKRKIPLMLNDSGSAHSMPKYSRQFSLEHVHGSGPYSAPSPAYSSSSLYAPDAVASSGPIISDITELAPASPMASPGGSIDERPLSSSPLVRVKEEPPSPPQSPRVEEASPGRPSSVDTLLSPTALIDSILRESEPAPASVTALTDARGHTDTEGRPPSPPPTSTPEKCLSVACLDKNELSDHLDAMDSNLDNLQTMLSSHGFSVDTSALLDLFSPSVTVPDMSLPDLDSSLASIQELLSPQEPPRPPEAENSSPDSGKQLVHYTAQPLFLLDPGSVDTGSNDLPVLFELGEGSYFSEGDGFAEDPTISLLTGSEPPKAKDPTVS

Legend:
[1] = target: HSF1 (UniProt Q00613); assay: DAPPL (digital affinity profiling via proximity ligation, sequencing); details: 10 mM Tris-HCl pH 7.5, 50 mM NaCl, 1 mM DTT, 4% glycerol, room temperature, 30 min; GST-TFs on glutathione beads, 16-mer random dsDNA library, 0.1% …; high values mean tight binding; double strand, one strand shown; scale: fold enrichment (6-mer frequency, TF over GST control)
[2] = target: T1, ELF2 (UniProt Q15723); assay: as above; details: 10 mM Tris-HCl pH 7.5, 50 mM NaCl, 1 mM DTT, 4% glycerol, room temperature, 30 min; GST-TFs on glutathione beads, 16-mer random dsDNA library, 0.1% …; high values mean tight binding; double strand, one strand shown; scale: fold enrichment (6-mer frequency, TF over GST control)
T1 sequence: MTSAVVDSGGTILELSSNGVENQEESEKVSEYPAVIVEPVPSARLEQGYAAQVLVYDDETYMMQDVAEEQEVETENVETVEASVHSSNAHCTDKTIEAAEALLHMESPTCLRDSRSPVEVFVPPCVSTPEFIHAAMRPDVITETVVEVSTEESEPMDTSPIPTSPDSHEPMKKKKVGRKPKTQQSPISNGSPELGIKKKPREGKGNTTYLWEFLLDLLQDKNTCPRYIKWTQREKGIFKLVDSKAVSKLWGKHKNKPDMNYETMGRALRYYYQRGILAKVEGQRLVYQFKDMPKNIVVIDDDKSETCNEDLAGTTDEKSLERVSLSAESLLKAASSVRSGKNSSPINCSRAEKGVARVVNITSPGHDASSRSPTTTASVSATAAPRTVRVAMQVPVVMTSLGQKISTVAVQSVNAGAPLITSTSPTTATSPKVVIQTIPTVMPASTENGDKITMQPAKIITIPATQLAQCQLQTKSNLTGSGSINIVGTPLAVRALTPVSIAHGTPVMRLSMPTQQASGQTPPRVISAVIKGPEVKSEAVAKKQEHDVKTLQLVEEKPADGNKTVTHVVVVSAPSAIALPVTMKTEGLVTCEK

Row | Sequence | binding signal [1] | binding signal [2]
1 | ACTAAT | 1.81 | 1.28
2 | TTATGG | 1.74 | 1.27
3 | AAGGGC | 0.92 | 0.987
4 | AGCTGC | 1.04 | 1.07
5 | TCAATG | 0.942 | 0.987
6 | ACTCGG | 0.935 | 1.01
7 | CAGCGC | 0.843 | 0.944
8 | CCAAGT | 0.793 | 0.876
9 | AACTTG | 1.09 | 1.1
10 | TCCGCA | 1.21 | 2.82
11 | TGTCTA | 1.15 | 1.11
12 | TAACTG | 1.25 | 1.19
13 | CAACAC | 0.86 | 1.13
14 | AACTGG | 1.25 | 1.21
15 | AGATGT | 0.965 | 0.9
16 | GCACAC | 0.742 | 0.99
17 | TGCGTC | 0.71 | 0.957
18 | TCCCGA | 2.34 | 1.32
19 | GTCTTG | 0.825 | 0.984
20 | CATACG | 0.884 | 0.988
21 | TCGTTA | 0.938 | 0.891

Row | Sequence | binding signal [1] | binding signal [2]
22 | TAGCGA | 1.22 | 0.998
23 | AGTGGT | 0.837 | 1.05
24 | GGGCTC | 0.92 | 1.14
25 | GCTGCG | 0.978 | 1.09
26 | GCGTTA | 0.934 | 0.923
27 | AGTCCT | 0.903 | 1.06
28 | TGTATA | 1 | 1.09
29 | AAAGCT | 1.32 | 1.05
30 | TGACCG | 1.17 | 1.5
31 | GCCCAC | 0.813 | 1.07
32 | ACGCCG | 0.862 | 1.03
33 | AATCCT | 2.25 | 1.32
34 | CGCGTA | 0.991 | 0.968
35 | CAATCT | 1.48 | 1.18
36 | GTGGTA | 0.835 | 0.903
37 | TGCAAT | 0.983 | 1.15
38 | ATAGCG | 0.852 | 0.999
39 | AACGGC | 0.95 | 1.13
40 | GGTTGT | 0.715 | 0.891
41 | TATGTT | 1.21 | 1.18

Pulled one by one from the list above (2):
Row | Sequence | binding signal [1] | binding signal [2]
32 | ACGCCG | 0.862 | 1.03
27 | AGTCCT | 0.903 | 1.06
